{"source": "paper PMC12524865", "biological_target": "T1, 6Myc-TRIM48 (human) (UniProt Q8IWZ4)", "T1 sequence": "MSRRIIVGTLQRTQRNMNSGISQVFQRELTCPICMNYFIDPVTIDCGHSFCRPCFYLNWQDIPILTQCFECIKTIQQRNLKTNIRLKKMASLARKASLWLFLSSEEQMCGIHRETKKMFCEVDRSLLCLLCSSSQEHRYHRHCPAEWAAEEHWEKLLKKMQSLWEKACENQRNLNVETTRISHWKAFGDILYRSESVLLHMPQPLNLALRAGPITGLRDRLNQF", "test": "co-IP; HEK293A cells transfected with the plasmids, treated with 5 uM MG132 for 6 h; lysed in IP lysis buffer (20 mM Tris-HCl pH 7.4, 150 mM NaCl, 10 mM EDTA, 1% Triton-X100, 1% sodium deoxycholate); immunoprecipitated with anti-Myc antibody, immunoblot", "note": "No constants are given. Whether binding was seen depends on the method and setting. In cells and extracts the contact can be indirect. Some entries that bind do so weakly or less than the wild type. Where a sequence is shown, tags or fusion partners need not be part of it.", "data": [{"binder": "Flag-FBXO17 (protein, UniProt Q96EF6 1-278) MGARLSRRRLPADPSLALDALPPELLVQVLSHVPPRSLVTRCRPVCRAWRDIVDGPTVWLLQLARDRSAEGRALYAVAQRCLPSNEDKEEFPLCALARYCLRAPFGRNLIFNSCGEQGFRGWEVEHGGNGWAIEKNLTPVPGAPSQTCFVTSFEWCSKRQLVDLVMEGVWQELLDSAQIEICVADWWGARENCGCVYQLRVRLLDVYEKEVVKFSASPDPVLQWTERGCRQVSHVFTNFGKGIRYVSFEQYGRDVSSWVGHYGALVTHSSVRVRIRLS", "values": [{"measurement": "binding", "result": "binds"}]}]}
